PubChem BioAssay AID1508597 | Cure First – 2020
This is a random part of the about 2,100 reagents, in one setting of the screen. 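Calls flag viability under 80% in either arm, not effects specific to rucaparib; the reference for percent is not stated.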 A number with no mark means an inactive call. No sequences are given here. The record does not give: the 100% reference.

- Purpose: 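Genes whose silencing sensitises or protects ovarian cancer cells against rucaparib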 (primary screen)
- Cell system: human ovarian carcinoma lines grown from tumours: OCI-P5x (papillary serous) and OCI-C5x (clear cell)
- Knock-down reagent: siRNA pool against human genes, 1.25 pmol siRNA per well
- Duration: 72 h or 96 h, depending on the cell culture
- Treatment: rucaparib 20 µM (about IC30) or vehicle, present until read-out
- Rucaparib or vehicle: Vehicle
- Cell line: OCI-P5x (serous)
- Detection: 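ATP luminescence measured at 72 or 96 h according to the culture, then normalised and expressed as percent viability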
- Scale: viability, normalised: higher = more viable cells remaining
- Active means: 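Active when normalised viability falls below 80 percent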
- Meaning of the calls: active = viability under 80%; inactive = viability 80% or more

With UPF1, technical replicate 1, what does the deposit list?
viability, normalised (%): 65.1 (active)

With UPF1, technical replicate 2, what was measured?
viability, normalised (%): 51.8 (active)

How did the screen score UPF1, technical replicate 3?
viability, normalised (%): 53.3 (active)

For CLP1, technical replicate 1, what does the deposit list?
viability, normalised (%): 71.4 (active)

Which result is listed for CLP1, technical replicate 2?
viability, normalised (%): 81.3

For CLP1, technical replicate 3, how do the results read?
viability, normalised (%): 74.2 (active)

Which result is listed for PCDHB2, technical replicate 1?
viability, normalised (%): 56 (active)

For PCDHB2, technical replicate 2, what does the deposit list?
viability, normalised (%): 50.2 (active)

What did the screen give for PCDHB2, technical replicate 3?
viability, normalised (%): 64.6 (active)

For MMS19, technical replicate 1, what does the deposit list?
viability, normalised (%): 87

With MMS19, technical replicate 2, what was measured?
viability, normalised (%): 74.4 (active)

How did the screen score MMS19, technical replicate 3?
viability, normalised (%): 71.7 (active)

What is on record for NCOA2, technical replicate 1?
viability, normalised (%): 57.2 (active)

What is on record for NCOA2, technical replicate 2?
viability, normalised (%): 51.9 (active)

What is on record for NCOA2, technical replicate 3?
viability, normalised (%): 74.3 (active)

How did the screen score CDH4, technical replicate 1?
viability, normalised (%): 101

For CDH4, technical replicate 2, what does the deposit list?
viability, normalised (%): 79.7 (active)

How did the screen score CDH4, technical replicate 3?
viability, normalised (%): 88.1

How did the screen score MED7, technical replicate 1?
viability, normalised (%): 62.4 (active)

What is on record for MED7, technical replicate 2?
viability, normalised (%): 63 (active)

How did the screen score MED7, technical replicate 3?
viability, normalised (%): 54.8 (active)

What did the screen give for TBL1X, technical replicate 1?
viability, normalised (%): 70 (active)

Which result is listed for TBL1X, technical replicate 2?
viability, normalised (%): 73 (active)

Which result is listed for TBL1X, technical replicate 3?
viability, normalised (%): 83.7

Which result is listed for DDX24, technical replicate 1?
viability, normalised (%): 64.9 (active)

For DDX24, technical replicate 2, what was measured?
viability, normalised (%): 82.3

Which result is listed for DDX24, technical replicate 3?
viability, normalised (%): 76.7 (active)

For MARK1, technical replicate 1, what does the deposit list?
viability, normalised (%): 66.7 (active)

What did the screen give for MARK1, technical replicate 2?
viability, normalised (%): 59.8 (active)

How did the screen score MARK1, technical replicate 3?
viability, normalised (%): 59 (active)

For CHD7, technical replicate 1, how do the results read?
viability, normalised (%): 63.5 (active)

With CHD7, technical replicate 2, what was measured?
viability, normalised (%): 77.3 (active)

With CHD7, technical replicate 3, how do the results read?
viability, normalised (%): 67.5 (active)

Taken from above:
MMS19, technical replicate 1, viability, normalised (%) → 87
Under “viability, normalised (%)”, DDX24, technical replicate 2 reads 82.3
Under “viability, normalised (%)”, TBL1X, technical replicate 2 shows 73 (active)
